ChEMBL document CHEMBL4316593 (Eur J Med Chem, 2019)
This continues a long series; more values of the same kind are listed elsewhere.

Tests used:
Assay type in all cases: cell-based
Conditions in all cases: U-87MG ATCC
[1] = Inhibition of RTK/PI3K/AKT/mTOR signaling in human U87 cells assessed as down regulation of ZNF699 gene expression at cytotoxic IC50 measured after 48 hrs relative to control
[2] = Inhibition of RTK/PI3K/AKT/mTOR signaling in human U87 cells assessed as down regulation of FAM171B gene expression at cytotoxic IC50 measured after 48 hrs relative to control
[3] = Inhibition of RTK/PI3K/AKT/mTOR signaling in human U87 cells assessed as down regulation of BORCS5 gene expression at cytotoxic IC50 measured after 48 hrs relative to control
[4] = Inhibition of RTK/PI3K/AKT/mTOR signaling in human U87 cells assessed as down regulation of FOSL1 gene expression at cytotoxic IC50 measured after 48 hrs relative to control
[5] = Inhibition of RTK/PI3K/AKT/mTOR signaling in human U87 cells assessed as down regulation of RAD54L gene expression at cytotoxic IC50 measured after 48 hrs relative to control
[6] = Inhibition of RTK/PI3K/AKT/mTOR signaling in human U87 cells assessed as down regulation of LATS2 gene expression at cytotoxic IC50 measured after 48 hrs relative to control
[7] = Inhibition of RTK/PI3K/AKT/mTOR signaling in human U87 cells assessed as down regulation of UNC119 gene expression at cytotoxic IC50 measured after 48 hrs relative to control
[8] = Inhibition of RTK/PI3K/AKT/mTOR signaling in human U87 cells assessed as down regulation of BTRC gene expression at cytotoxic IC50 measured after 48 hrs relative to control
[9] = Inhibition of RTK/PI3K/AKT/mTOR signaling in human U87 cells assessed as down regulation of C2CD3 gene expression at cytotoxic IC50 measured after 48 hrs relative to control
[10] = Inhibition of RTK/PI3K/AKT/mTOR signaling in human U87 cells assessed as down regulation of RFC5 gene expression at cytotoxic IC50 measured after 48 hrs relative to control
[11] = Inhibition of RTK/PI3K/AKT/mTOR signaling in human U87 cells assessed as down regulation of TMEM14B gene expression at cytotoxic IC50 measured after 48 hrs relative to control
[12] = Inhibition of RTK/PI3K/AKT/mTOR signaling in human U87 cells assessed as down regulation of APLP2 gene expression at cytotoxic IC50 measured after 48 hrs relative to control
[13] = Inhibition of RTK/PI3K/AKT/mTOR signaling in human U87 cells assessed as down regulation of GPS1 gene expression at cytotoxic IC50 measured after 48 hrs relative to control
[14] = Inhibition of RTK/PI3K/AKT/mTOR signaling in human U87 cells assessed as down regulation of PACS1 gene expression at cytotoxic IC50 measured after 48 hrs relative to control
[15] = Inhibition of RTK/PI3K/AKT/mTOR signaling in human U87 cells assessed as up regulation of MEGF6 gene expression at cytotoxic IC50 measured after 48 hrs relative to control
[16] = Inhibition of RTK/PI3K/AKT/mTOR signaling in human U87 cells assessed as up regulation of SMIM10L2A gene expression at cytotoxic IC50 measured after 48 hrs relative to control
[17] = Inhibition of RTK/PI3K/AKT/mTOR signaling in human U87 cells assessed as up regulation of STEAP3 gene expression at cytotoxic IC50 measured after 48 hrs relative to control
[18] = Inhibition of RTK/PI3K/AKT/mTOR signaling in human U87 cells assessed as up regulation of TNFRSF10D gene expression at cytotoxic IC50 measured after 48 hrs relative to control
[19] = Inhibition of RTK/PI3K/AKT/mTOR signaling in human U87 cells assessed as up regulation of complement C1r subcomponent like gene expression at cytotoxic IC50 measured after 48 hrs relative to control
[20] = Inhibition of RTK/PI3K/AKT/mTOR signaling in human U87 cells assessed as up regulation of nuclear factor I C gene expression at cytotoxic IC50 measured after 48 hrs relative to control
[21] = Inhibition of RTK/PI3K/AKT/mTOR signaling in human U87 cells assessed as up regulation of nudix hydrolase 14 gene expression at cytotoxic IC50 measured after 48 hrs relative to control
[22] = Inhibition of RTK/PI3K/AKT/mTOR signaling in human U87 cells assessed as up regulation of microtubule-actin crosslinking factor 1 gene expression at cytotoxic IC50 measured after 48 hrs relative to control
[23] = Inhibition of RTK/PI3K/AKT/mTOR signaling in human U87 cells assessed as up regulation of chromosome 14 open reading frame 159 gene expression at cytotoxic IC50 measured after 48 hrs relative to control
[24] = Inhibition of RTK/PI3K/AKT/mTOR signaling in human U87 cells assessed as up regulation of golgi glycoprotein 1 gene expression at cytotoxic IC50 measured after 48 hrs relative to control
[25] = Inhibition of RTK/PI3K/AKT/mTOR signaling in human U87 cells assessed as up regulation of vav guanine nucleotide exchange factor 1 gene expression at cytotoxic IC50 measured after 48 hrs relative to control
[26] = Inhibition of RTK/PI3K/AKT/mTOR signaling in human U87 cells assessed as up regulation of EH domain binding protein 1 like 1 gene expression at cytotoxic IC50 measured after 48 hrs relative to control
[27] = Inhibition of RTK/PI3K/AKT/mTOR signaling in human U87 cells assessed as up regulation of ERCC excision repair 1, endonuclease non-catalytic subunit gene expression at cytotoxic IC50 measured after 48 hrs relative to control
[28] = Inhibition of RTK/PI3K/AKT/mTOR signaling in human U87 cells assessed as up regulation of adaptor related protein complex 1 sigma 3 subunit gene expression at cytotoxic IC50 measured after 48 hrs relative to control
[29] = Inhibition of RTK/PI3K/AKT/mTOR signaling in human U87 cells assessed as up regulation of FK506 binding protein 8 gene expression at cytotoxic IC50 measured after 48 hrs relative to control
[30] = Inhibition of RTK/PI3K/AKT/mTOR signaling in human U87 cells assessed as up regulation of fatty acid desaturase 1 gene expression at cytotoxic IC50 measured after 48 hrs relative to control
[31] = Inhibition of RTK/PI3K/AKT/mTOR signaling in human U87 cells assessed as up regulation of ABHD14B gene expression at cytotoxic IC50 measured after 48 hrs relative to control
[32] = Inhibition of RTK/PI3K/AKT/mTOR signaling in human U87 cells assessed as up regulation of MYBBP1A gene expression at cytotoxic IC50 measured after 48 hrs relative to control

Compound: CC(=O)C(=NNc1ccccc1C#N)C(C)=O
- log2FC [1]: -2.18
- log2FC [2]: -1.31
- log2FC [3]: -1.28
- log2FC [4]: -1.27
- log2FC [5]: -1.26
- log2FC [6]: -1.15
- log2FC [7]: -0.881
- log2FC [8]: -0.852
- log2FC [9]: -0.731
- log2FC [10]: -0.705
- log2FC [11]: -0.686
- log2FC [12]: -0.639
- log2FC [13]: -0.588
- log2FC [14]: -0.442
- log2FC [15]: 2.91
- log2FC [16]: 2
- log2FC [17]: 1.7
- log2FC [18]: 1.65
- log2FC [19]: 1.2
- log2FC [20]: 1.17
- log2FC [21]: 1.17
- log2FC [22]: 1.16
- log2FC [23]: 1.11
- log2FC [24]: 1.07
- log2FC [25]: 1.05
- log2FC [26]: 0.959
- log2FC [27]: 0.924
- log2FC [28]: 0.897
- log2FC [29]: 0.849
- log2FC [30]: 0.759
- log2FC [31]: 0.601
- log2FC [32]: 0.565
